Assay results: PubChem BioAssay AID540276 (National Center for Advancing Translational Sciences (NCATS), 2011)
“And” between values parts separate entries of the source, which are not always exact repeats. Identical values can stand only once. Hit rate of the full screen: of about 300,000 compounds, about 5,400 (1.8%) were called active. Inconclusive means that the source gave no clear call. Such entries were picked first, then a sample of the others. Calls follow the shape of the full dose curve; tested in HEK293 cells. Where the call is inconclusive, the potency comes from a doubtful curve fit.
Potency is read from the fitted curve at half-maximal effect.

Test: qHTS for inhibitors of binding or entry into cells for Marburg Virus
Settings: Marburg virus pseudotyped entry inhibition, cell reporter; series mostly up to 37.8 µM
With `O=S(=O)(NCC(Nc1ccc(Cl)cc1)c1ccccc1)c1ccccc1` (configuration not stated) the Potency was inconclusive: 35.5 µM [inhibitor, partial curve, poor fit].
In the case of `COc1cc(NC(=O)Nc2ccccc2)c(OC)cc1NC(=O)CN1CCCCC1`, the Potency is reported as inconclusive: 3.55 µM [inhibitor, single point].
With `Cc1cc(C)c(NC(=O)COc2ccc3c(C)cc(=O)oc3c2)c(C)c1` the Potency was “inactive”.
With `CCn1c(SCC(=O)c2ccccc2)nc2ccccc2c1=O` the Potency was “inactive”.
With `COc1ccc(C(=O)NC2CCCCC2)cc1S(=O)(=O)N1CCCC1` the Potency was inconclusive: 1.41 µM [activator, full curve, poor fit].
For `CCOC(=O)C1CCN(C(=O)CN(c2ccc(OC)c(OC)c2)S(=O)(=O)c2ccccc2)CC1`, the Potency was “inactive”.
For `O=C(Nc1ccccc1C(=O)N1CCOCC1)c1ccco1`, the Potency was inconclusive: 0.0891 µM [inhibitor, full curve, poor fit].
With `CSc1nc2[nH]c3c(c2c2nncn12)CC(C)(C)OC3` the Potency was inconclusive: 10 µM [activator, partial curve].
In the case of `CCN(CC)c1ccc(/C=C/C(=O)c2ccc(Br)cc2)cc1`, the Potency is reported as “inactive”.
For `CCOc1ccc(-c2cc(NC(=O)c3c(F)cccc3F)c(C(=O)O)s2)cc1`, the Potency was “inactive”.
In the case of `O=C(CSc1nnc(-c2ccccc2Cl)o1)Nc1ccc2c(c1)OCCO2`, the Potency is reported as “inactive”.
For `O=C(c1ccccc1)c1cnc(Nc2ccccc2Cl)s1`, the Potency was inconclusive: 1.16 µM [activator, full curve].
With `O=C(NCC1COc2ccccc2O1)c1ccc(-n2cncn2)c([N+](=O)[O-])c1` (configuration not stated) the Potency was inconclusive: 14.1 µM [activator, partial curve, poor fit].
For `Cc1noc(C)c1CSCC(=O)Nc1nc(-c2ccc(F)c(F)c2)cs1`, the Potency was inconclusive: 14.1 µM [inhibitor, single point].
With `COC(=O)c1ccc(CSc2nc3ccc(C)cc3[nH]2)o1` the Potency was “inactive”.
For `COc1cc(C(C(=O)NC2CCCCC2)N(C(=O)c2snc(C(N)=O)c2N)c2ccc(C)cc2)ccc1O` (configuration not stated), the Potency was inconclusive: 12.6 µM [inhibitor, single point].
With `C=CCn1c(=N)n(CC(=O)c2ccccc2)c2ccccc21` the Potency was inconclusive: 35.5 µM [inhibitor, single point].
In the case of `O=C(Nc1ccc(F)cc1F)c1ccccc1-c1ccccc1`, the Potency is reported as “inactive”.
In the case of `COC(=O)c1ccc(CN2CCC(CO)(Cc3ccccc3Cl)CC2)cc1`, the Potency is reported as inconclusive: 10 µM [inhibitor, single point].
With `CCN(CC(=O)Nc1ccc(OC)cc1)C(=O)CSCC(=O)Nc1ccc(C)cc1` the Potency was inconclusive: 0.708 µM [inhibitor, single point].
With `O=C(OCc1ccc(Br)cc1)c1cnc(Cl)c(Cl)c1` the Potency was “inactive”.
For `Brc1ccc(Oc2ncc(CN3CCOCC3)s2)cc1`, the Potency was inconclusive: 32.6 µM [activator, single point].
For `CCn1nc(C)cc1C(=O)N1CCCC(N2CCN(Cc3ccc4c(c3)OCO4)CC2)C1` (configuration not stated), the Potency was inconclusive: 35.5 µM [inhibitor, single point].
In the case of `COc1ccccc1C(c1nnnn1Cc1ccco1)N1CCN(c2cccc(C)c2C)CC1` (configuration not stated), the Potency is reported as inconclusive: 10.3 µM [inhibitor, partial curve, poor fit].
For `Cc1ccc(-c2noc(CN(C(=O)COc3cc(C)cc(C)c3C)C(C)C)n2)cc1`, the Potency was “inactive”.
In the case of `COc1ccc(-c2noc(CNS(=O)(=O)c3ccc(Br)cc3)n2)cc1OC`, the Potency is reported as “inactive”.
For `C=CCSc1nn2c(=O)c3ccccc3nc2s1`, the Potency was “inactive”.
In the case of `COc1ccc(NC(=O)/C=C/c2ccccc2)cn1`, the Potency is reported as “inactive”.
With `Cc1csc(NC(=O)C2CCCO2)n1` (configuration not stated) the Potency was “inactive”.
In the case of `Cc1scc(C(=O)Nc2ccon2)c1-c1ccccc1`, the Potency is reported as inconclusive: 32.6 µM [inhibitor, single point].
For `COc1ccc(C(=O)N2CCN(c3cccc(Cl)c3)CC2)cc1`, the Potency was inconclusive: 0.447 µM [activator, full curve, poor fit].
In the case of `Cc1ccc(-c2nc3cccnc3o2)cc1NC(=O)COc1ccc(C(C)(C)C)cc1`, the Potency is reported as inconclusive: 22.4 µM [inhibitor, partial curve, poor fit].
For `CCOc1ccc(N(C)Cc2cc(=O)oc3ccc(OC)cc23)cc1`, the Potency was inconclusive: 7.08 µM [inhibitor, partial curve, poor fit].
For `OC1CCN(Cc2nc(Cc3ccccc3Cl)no2)CC1`, the Potency was “inactive”.
For `CCN(CC)CCSc1nnc2c3cc(F)ccc3n(C)c2n1`, the Potency was inconclusive: 6.31 µM [activator, single point].
In the case of `CCN(CC)CCNC(=O)c1ccc(Cl)c(S(=O)(=O)N2CCCCCC2)c1`, the Potency is reported as inconclusive: 35.5 µM [inhibitor, single point].
In the case of `COc1ccc(-c2cc3ncc(-c4ccccc4)c(N)n3n2)cc1`, the Potency is reported as inconclusive: 1.41 µM [activator, partial curve, poor fit].
With `Cc1ccc(/C=C/C(=O)N2CCc3ccccc3C2)cc1` the Potency was “inactive”.
With `Cc1ccc(S(=O)(=O)N(C)C)cc1NC(=S)NC(C)CCCC(C)C` (configuration not stated) the Potency was inconclusive: 29.1 µM [inhibitor, single point].
For `Cc1nn(Cc2ccccc2)c(Cl)c1C(=O)OCC(=O)Nc1cccc2ccccc12`, the Potency was inconclusive: 1 µM [inhibitor, partial curve, poor fit].
With `CCOC(=O)C1=C(N)OC2=C(C(=O)CCC2)C1c1cccnc1` (configuration not stated) the Potency was inconclusive: 7.94 µM [activator, partial curve, poor fit].
For `CCCCCCSc1nsc(NC(C)=O)n1`, the Potency was “inactive”.
In the case of `CCc1ccc(-c2cc(C(=O)N3N=C(C(F)F)CC3(O)C(F)F)c3ccccc3n2)cc1` (configuration not stated), the Potency is reported as inconclusive: 18.3 µM [inhibitor, single point].
For `Cc1ccc(C(=O)OCc2cn3ccccc3n2)cc1`, the Potency was “inactive”.
With `COc1ccc(/C=N/NC(=O)c2ccccc2NC(=O)c2ccco2)c(OC)c1` the Potency was inconclusive: 1.26 µM [activator, single point].
For `COC(CC(=O)NNC(=S)Nc1ccc(Cl)cc1)OC`, the Potency was inconclusive: 14.1 µM [activator, single point].
With `COc1ccccc1N1CCN(S(=O)(=O)c2ccc3nc(-c4ccccc4)[nH]c3c2)CC1` the Potency was inconclusive: 20.6 µM [inhibitor, single point] and inconclusive: 35.5 µM [inhibitor, single point].
In the case of `CCOc1ccc(-c2nc(CSCC(=O)NCc3ccco3)c(C)o2)cc1`, the Potency is reported as inconclusive: 11.2 µM [inhibitor, partial curve, poor fit].
With `CCOC(=O)c1sc(NC(=O)Nc2ccccc2)cc1C` the Potency was active: 16.4 µM.
In the case of `O=C(NNC(=S)Nc1ccc(Cl)c(Cl)c1)c1cccc([N+](=O)[O-])c1`, the Potency is reported as inconclusive: 10 µM [activator, partial curve, poor fit].
In the case of `Cc1c(-c2ccccc2)nc2ccccc2c1C(=O)NCc1cccs1`, the Potency is reported as inconclusive: 35.5 µM [inhibitor, single point].
With `COc1ccc(CCNC2=NCC(C)S2)cc1` (configuration not stated) the Potency was inconclusive: 0.259 µM [activator, single point].
With `COc1ccc(C(NC(=O)CC(C)C)NC(=O)CC(C)C)cc1OC` the Potency was inconclusive: 1.78 µM [activator, partial curve, poor fit].
For `S=C(NCc1cccnc1)Nc1ccc(Cl)cc1`, the Potency was “inactive”.
With `COc1ccc(CCNC2=C(Cl)C(=O)N(CCc3ccc(OC)c(OC)c3)C2=O)cc1OC` the Potency was inconclusive: 4.47 µM [inhibitor, partial curve, poor fit].
In the case of `CC(C)NC(=O)C1CCN(C(=O)c2cc3sccc3n2Cc2ccc(Cl)cc2)CC1`, the Potency is reported as inconclusive: 4.47 µM [inhibitor, full curve, poor fit].
In the case of `CC(C)Sc1nc2sc3c(c2c2nnc(SCC(=O)NCc4ccco4)n12)CCCC3`, the Potency is reported as inconclusive: 7.08 µM [inhibitor, partial curve, poor fit].
For `CCc1c(C)c(C#N)c2nc3ccccc3n2c1NCC1CCCO1` (configuration not stated), the Potency was “inactive”.
With `CCN1CCN(C(=O)N2CCOCC2)CC1` the Potency was inconclusive: 12.6 µM [activator, single point].
In the case of `COc1ccc(/C=C/C(=O)c2ccc3ccccc3c2O)cc1CN1CCOCC1`, the Potency is reported as “inactive”.
In the case of `C=CCNCCCOc1ccc(Cl)cc1Br`, the Potency is reported as inconclusive: 25.9 µM [inhibitor, partial curve, poor fit].
With `Cc1nonc1C(=O)N/N=C/c1ccccc1` the Potency was inconclusive: 12.6 µM [activator, single point].
With `O=C(CC(=O)c1ccccc1)CC(O)(C=Cc1ccccc1)c1ccccc1` (configuration not stated) the Potency was inconclusive: 10 µM [inhibitor, single point].
For `Cc1ccccc1CCNC(=O)c1ccc(Cl)c(S(=O)(=O)N2CC(C)OC(C)C2)c1` (configuration not stated), the Potency was inconclusive: 8.91 µM [inhibitor, partial curve, poor fit].
In the case of `S=C(NCc1ccccc1)Nc1ccncc1`, the Potency is reported as “inactive”.
For `CC(OC(=O)c1ccccc1NS(=O)(=O)c1cccc(C(F)(F)F)c1)C(=O)N(C)Cc1ccccc1` (configuration not stated), the Potency was active: 7.08 µM.
With `Cc1ccsc1C(=O)OCC(=O)N1CCN(C(=O)c2ccco2)CC1` the Potency was “inactive”.
For `O=C(Nc1cccc(Br)c1)c1ccc(Cl)c(S(=O)(=O)N2CCOCC2)c1`, the Potency was inconclusive: 29.1 µM [inhibitor, single point].
With `CCn1ncc(/C=C/C(=O)c2ccccc2)c1C` the Potency was “inactive”.
In the case of `Cn1c(=O)c2c(c3ccccc31)OC(=O)CC2c1cccc(F)c1` (configuration not stated), the Potency is reported as “inactive”.
With `Cc1sc(NC(=O)CN2CCOCC2)nc1-c1ccc2c(c1)CCN2S(=O)(=O)c1ccccc1` the Potency was active: 13 µM.
With `Cc1ccc(OCC(=O)Nc2ccccc2C(=O)N2CCCCC2)cc1` the Potency was inconclusive: 20 µM [inhibitor, partial curve, poor fit].
